Among the data in PMC8316575 are binding values, retold here.

The chains behind the UniProt entries cited, without tags or fusion partners.
UniProt P47196: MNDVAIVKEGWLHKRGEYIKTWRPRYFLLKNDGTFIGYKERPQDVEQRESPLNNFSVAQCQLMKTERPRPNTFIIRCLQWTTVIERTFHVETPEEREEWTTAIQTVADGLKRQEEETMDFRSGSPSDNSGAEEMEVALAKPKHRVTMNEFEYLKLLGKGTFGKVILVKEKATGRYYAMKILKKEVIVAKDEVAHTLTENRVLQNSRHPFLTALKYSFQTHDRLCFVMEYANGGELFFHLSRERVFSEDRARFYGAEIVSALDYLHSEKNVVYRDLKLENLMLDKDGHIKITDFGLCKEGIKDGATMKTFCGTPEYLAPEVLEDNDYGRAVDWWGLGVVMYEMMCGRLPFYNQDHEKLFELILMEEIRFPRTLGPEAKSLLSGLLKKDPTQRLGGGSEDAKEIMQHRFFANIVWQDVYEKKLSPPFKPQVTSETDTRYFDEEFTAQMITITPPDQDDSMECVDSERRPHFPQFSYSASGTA

Results are given in words; binding and its absence hold for the method and conditions named. Binding seen in cells or lysates may run through a third protein. Some results given as binding are weak or reduced against the parent protein; the word gives no strength.

For the assay, the target named is T1, Bad (rat (endogenous in kidney cortex)) (UniProt O35147).
T1 sequence: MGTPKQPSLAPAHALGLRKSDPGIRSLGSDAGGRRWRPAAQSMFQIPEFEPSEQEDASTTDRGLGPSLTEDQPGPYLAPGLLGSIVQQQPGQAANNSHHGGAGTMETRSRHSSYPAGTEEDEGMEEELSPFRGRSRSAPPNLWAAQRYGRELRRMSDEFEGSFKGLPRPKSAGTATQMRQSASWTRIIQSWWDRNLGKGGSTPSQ
Kind of assay: co-IP; anti-Bad 11E3 antibody (or normal rabbit IgG) on Dynabeads, incubated with rat kidney cortex lysate (RIPA, 0.8 mg protein) overnight at 4 °C; blot for Akt1; cortex slices pre-treated with 10 or 30 mM glucose for 1 h, with or without ouabain.

In the case of “Akt1 (from UniProt P47196 1-480) (enzyme)”, the binding result is recorded as “binds”.
